This assay concerns the target T1, interleukin-1 receptor associated kinase 4 (mouse (endogenous in SIM-A9)) (UniProt Q8R4K2).
T1 sequence: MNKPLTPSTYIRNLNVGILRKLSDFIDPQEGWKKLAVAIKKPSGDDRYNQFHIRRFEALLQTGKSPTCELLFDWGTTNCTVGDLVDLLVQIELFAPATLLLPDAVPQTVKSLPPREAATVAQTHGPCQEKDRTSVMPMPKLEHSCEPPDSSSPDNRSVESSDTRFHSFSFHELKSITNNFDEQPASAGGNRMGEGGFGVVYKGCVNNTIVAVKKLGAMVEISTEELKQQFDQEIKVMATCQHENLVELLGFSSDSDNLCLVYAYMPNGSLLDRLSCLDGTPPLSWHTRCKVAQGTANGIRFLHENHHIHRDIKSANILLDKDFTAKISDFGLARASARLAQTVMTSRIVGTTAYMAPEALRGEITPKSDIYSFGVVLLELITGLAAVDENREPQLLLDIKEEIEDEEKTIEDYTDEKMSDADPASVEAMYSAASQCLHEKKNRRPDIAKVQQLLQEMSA
Briefly: co-IP; SIM-A9 cell homogenates (normoxia control, 4 h OGD, OGD + LPS or OGD + IL-4, 24 h after stimulation); 15 ug anti-IRAK4 or anti-MyD88 antibody or IgG control added to crude protein (0.5-1 mg/mL) in PBST, protein G PLUS-Agarose, 4 °C; Western blot. In general terms: A western blot detects proteins with antibodies after separation by electrophoresis.

Amino acid sequences for entries named in this document (tags omitted).
UniProt P22366: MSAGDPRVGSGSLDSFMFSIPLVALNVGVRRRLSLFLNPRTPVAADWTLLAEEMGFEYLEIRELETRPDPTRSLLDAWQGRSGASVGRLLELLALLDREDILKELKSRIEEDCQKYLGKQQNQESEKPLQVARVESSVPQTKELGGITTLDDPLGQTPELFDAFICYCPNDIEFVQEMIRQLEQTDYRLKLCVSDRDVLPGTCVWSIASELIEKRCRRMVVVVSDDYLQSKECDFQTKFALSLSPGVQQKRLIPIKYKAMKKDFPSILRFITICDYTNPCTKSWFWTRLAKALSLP

These are yes or no findings as the source states them, for the method shown. Binding seen in cells or lysates may run through a third protein. Some entries that bind do so weakly or less than the wild type.

As for MyD88 (from UniProt P22366 1-296), the binding entry is given as “binds”.
